In publication PMC3322157:
Results are given in words; binding and its absence hold for the method and conditions named. Binding seen in cells or lysates may run through a third protein. Binding can be weak; no strength is given.

Biological target: fructose bis phosphate aldolase (mouse) (mouse (endogenous in mouse tissues))
Assay: co-IP; polyclonal fructose bisphosphate aldolase antibody linked to agarose beads; tissue extracts of mice with wild-type SCHAD, 4°C overnight; Western blot for SCHAD; albumin blank

binding: binds
B1: SCHAD (endogenous, mouse) (enzyme, UniProt Q61425 13-314)
chain: SSSSSASAAAKKILIKHVTVIGGGLMGAGIAQVAAATGHTVVLVDQTEDILAKSKKGIEESLKRMAKKKFTENPKAGDEFVEKTLSCLSTSTDAASVVHSTDLVVEAIVENLKLKNELFQRLDKFAAEHTIFASNTSSLQITNIANATTRQDRFAGLHFFNPVPMMKLVEVIKTPMTSQKTFESLVDFCKTLGKHPVSCKDTPGFIVNRLLVPYLIEAVRLHERGDASKEDIDTAMKLGAGYPMGPFELLDYVGLDTTKFILDGWHEMEPENPLFQPSPSMNNLVAQKKLGKKTGEGFYKYK
